Assay results published in PMC6487577.
These are yes or no findings as the source states them, for the method shown.

B1: TRIM24 RING (aa 1–153) (domain or fragment, UniProt O15164 1-153)
chain: MEVAVEKAVAAAAAASAAASGGPSAAPSGENEAESRQGPDSERGGEAARLNLLDTCAVCHQNIQSRAPKLLPCLHSFCQRCLPAPQRYLMLPAPMLGSAETPPPVPAPGSPVSGSSPFATQVGVIRCPVCSQECAERHIIDNFFVKDTTEVPS
B2: TRIM33 RING (aa 1–208) (domain or fragment, UniProt Q9UPN9 1-208)
chain: MAENKGGGEAESGGGGSGSAPVTAGAAGPAAQEAEPPLTAVLVEEEEEEGGRAGAEGGAAGPDDGGVAAASSGSAQAASSPAASVGTGVAGGAVSTPAPAPASAPAPGPSAGPPPGPPASLLDTCAVCQQSLQSRREAEPKLLPCLHSFCLRCLPEPERQLSVPIPGGSNGDIQQVGVIRCPVCRQECRQIDLVDNYFVKDTSEAPSS

Assays:
TRIM24 RING (aa 1–153) = TRIM24 RING (aa 1–153) (UniProt O15164); assay: SEC-MALS; SEC-MALLS, Superdex 75 10/300 GL, 25 mM Hepes pH 7.5, 150 mM NaCl, 0.5 mM TCEP, 3 mM NaN3, 25°C, 100 μl samples at multiple concentrations; both purified
TRIM33 RING (aa 1–208) = TRIM33 RING (aa 1–208) (UniProt Q9UPN9); assay: as above

Row | Binder | binding (TRIM24 RING (aa 1–153)) | binding (TRIM33 RING (aa 1–208))
1 | B1 | no binding | –
2 | B2 | – | no binding
